These are yes or no findings as the source states them, for the method shown. Binding seen in cells or lysates may run through a third protein. Some entries that bind do so weakly or less than the wild type.
T1: endogenous Cdc6 (human (endogenous in HEK293)) (UniProt Q99741)
T1 sequence: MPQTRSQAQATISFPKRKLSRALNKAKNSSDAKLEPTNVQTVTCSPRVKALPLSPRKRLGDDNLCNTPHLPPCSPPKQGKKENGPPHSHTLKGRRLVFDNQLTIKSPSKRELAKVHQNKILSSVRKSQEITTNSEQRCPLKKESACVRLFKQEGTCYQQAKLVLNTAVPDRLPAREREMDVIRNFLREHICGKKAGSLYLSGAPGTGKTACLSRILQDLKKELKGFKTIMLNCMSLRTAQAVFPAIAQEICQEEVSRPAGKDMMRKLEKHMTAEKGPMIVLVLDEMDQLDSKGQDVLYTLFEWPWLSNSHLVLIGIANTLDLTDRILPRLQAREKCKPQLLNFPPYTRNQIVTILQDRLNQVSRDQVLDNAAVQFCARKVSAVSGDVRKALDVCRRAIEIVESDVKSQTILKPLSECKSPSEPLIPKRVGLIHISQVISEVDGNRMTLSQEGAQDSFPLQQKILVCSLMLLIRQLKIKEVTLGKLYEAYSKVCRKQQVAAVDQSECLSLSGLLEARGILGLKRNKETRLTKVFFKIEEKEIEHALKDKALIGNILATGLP

B1: endogenous Sas-6 (protein, UniProt Q6UVJ0 1-657)
chain: MSQVLFHQLVPLQVKCKDCEERRVSIRMSIELQSVSNPVHRKDLVIRLTDDTDPFFLYNLVISEEDFQSLKFQQGLLVDFLAFPQKFIDLLQQCTQEHAKEIPRFLLQLVSPAAILDNSPAFLNVVETNPFKHLTHLSLKLLPGNDVEIKKFLAGCLKCSKEEKLSLMQSLDDATKQLDFTRKTLAEKKQELDKLRNEWASHTAALTNKHSQELTNEKEKALQAQVQYQQQHEQQKKDLEILHQQNIHQLQNRLSELEAANKDLTERKYKGDSTIRELKAKLSGVEEELQRTKQEVLSLRRENSTLDVECHEKEKHVNQLQTKVAVLEQEIKDKDQLVLRTKEAFDTIQEQKVVLEENGEKNQVQLGKLEATIKSLSAELLKANEIIKKLQGDLKTLMGKLKLKNTVTIQQEKLLAEKEEKLQKEQKELQDVGQSLRIKEQEVCKLQEQLEATVKKLEESKQLLKNNEKLITWLNKELNENQLVRKQDVLGPSTTPPAHSSSNTIRSGISPNLNVVDGRLTYPTCGIGYPVSSAFAFQNTFPHSISAKNTSHPGSGTKVQFNLQFTKPNASLGDVQSGATISMPCSTDKENGENVGLESKYLKKREDSIPLRGLSQNLFSNSDHQRDGTLGALHTSSKPTALPSASSAYFPGQLPNS
B2: endogenous Plk4 (enzyme, UniProt O00444 1-970)
chain: MATCIGEKIEDFKVGNLLGKGSFAGVYRAESIHTGLEVAIKMIDKKAMYKAGMVQRVQNEVKIHCQLKHPSILELYNYFEDSNYVYLVLEMCHNGEMNRYLKNRVKPFSENEARHFMHQIITGMLYLHSHGILHRDLTLSNLLLTRNMNIKIADFGLATQLKMPHEKHYTLCGTPNYISPEIATRSAHGLESDVWSLGCMFYTLLIGRPPFDTDTVKNTLNKVVLADYEMPSFLSIEAKDLIHQLLRRNPADRLSLSSVLDHPFMSRNSSTKSKDLGTVEDSIDSGHATISTAITASSSTSISGSLFDKRRLLIGQPLPNKMTVFPKNKSSTDFSSSGDGNSFYTQWGNQETSNSGRGRVIQDAEERPHSRYLRRAYSSDRSGTSNSQSQAKTYTMERCHSAEMLSVSKRSGGGENEERYSPTDNNANIFNFFKEKTSSSSGSFERPDNNQALSNHLCPGKTPFPFADPTPQTETVQQWFGNLQINAHLRKTTEYDSISPNRDFQGHPDLQKDTSKNAWTDTKVKKNSDASDNAHSVKQQNTMKYMTALHSKPEIIQQECVFGSDPLSEQSKTRGMEPPWGYQNRTLRSITSPLVAHRLKPIRQKTKKAVVSILDSEEVCVELVKEYASQEYVKEVLQISSDGNTITIYYPNGGRGFPLADRPPSPTDNISRYSFDNLPEKYWRKYQYASRFVQLVRSKSPKITYFTRYAKCILMENSPGADFEVWFYDGVKIHKTEDFIQVIEKTGKSYTLKSESEVNSLKEEIKMYMDHANEGHRICLALESIISEEERKTRSAPFFPIIIGRKPGSTSSPKALSPPPSVDSNYPTRERASFNRMVMHSAASPTQAPILNPSMVTNEGLGLTTTASGTDISSNSLKDCLPKSAQLLKSVFVKNVGWATQLTSGAVWVQFNDGSQLVVQAGVSSISYTSPNGQTTRYGENEKLPDYIKQKLQCLSSILLMFSNPTPNFH

Molecular target: T1, endogenous Cdc6 (human (endogenous in HEK293))
Test: co-IP; endogenous proteins, HEK293 total cell extract, IP with Cdc6 antibody (reciprocal with Sas-6 as bait per the text); in Fig. 7a HEK 293 T cells with control or Plk4 siRNA

Row | Binder | binding
1 | B1 | binds
2 | B2 | binds

Reference: article PMC5414174, “DNA replication licensing factor Cdc6 and Plk4 kinase antagonistically regulate centrosome duplication via Sas-6” (Nature Communications, 2017)
